According to US20200390870A1 (MINERVA BIOTECHNOLOGIES, published 2020):
No constants are given. Whether binding was seen depends on the method and setting. A result given as binding can be weak or reduced; the word gives no strength.

Tests used:
[1] = target: MUC1* transfected into cells (MUC1*45) (Homo sapiens (Human)); assay: FACS
[2] = target: MUC1* transfected into cells (MUC1*45) (Homo sapiens (Human)); assay: flow cytometry on HCT-116 cells transfected with MUC1* (clone #10) against empty vector (clone #8)
[3] = target: MUC1* transfected into cells (MUC1*45) (Homo sapiens (Human)); assay: FACS on HCT-116 cells
[4] = target: MUC1* transfected into cells (MUC1*45) (Homo sapiens (Human)); assay: cell binding assay: HEK293 cells expressing the CAR (GFP) and K562-MUC1* cells (CMTMR), wash steps, photographs

B1: mouse monoclonal antibody MN-C2 (antibody, V domains shown)
VH: EVQLEESGGGLVKPGGSLKLSCAASGFTFSGYAMSWVRQTPEKRLEWVATISSGGTYIYYPDSVKGRFTISRDNAKNTLYLQMSSLRSEDTAMYYCARLGGDNYYEYFDVWGAGTTVTVSS
VL: DIVITQSTASLGVSLGQRATISCRASKSVSTSGYSYMHWYQQRPGQPPKLLIYLASNLESGVPARFSGSGSGTDFTLNIHPVEEEDAATYYCQHSRELPFTFGGGTKLEIKR
notes: mouse monoclonal; also called Min-C2
- binding [1]: binds

B2: mouse monoclonal antibody MN-E6 (antibody, V domains shown)
VH: EVKVVESGGDLVKPGGSLKLSCVVSGFTFSRYGMSWVRQTPGKRLEWVATISGGGTYIYYPDSVKGRFTISRDNAKNTLYLQMSSLKSEDTAMYHCTRDNYGRNYDYGMDYWGQGTSVTVSS
VL: QIVLTQSPAIMSASPGEEVTLTCSATSSVSYIHWFQQRPGTSPKLWIYSTSNLASGVPVRFSGSGYGTSYSLTISRMEAEDAATYYCQQRSSSPFTFGSGTKLEIK
notes: mouse monoclonal; also called Min-E6
- binding [2]: binds
- binding [3]: binds

B3: CAR57: huC2-IgD-CD8-41BB-3z (protein)
chain: EVQLVESGGGLVKPGGSLRLSCAASGFTFSGYAMSWVRQAPGKGLEWVSTISSGGTYIYYPDSVKGRFTISRDNAKNSLYLQMNSLRAEDTAVYYCARLGGDNYYEYFDVWGKGTTVTVSSGGGGSGGGGSGGGGSDIVLTQSPASLAVSPGQRATITCRASKSVSTSGYSYMHWYQQKPGQPPKLLIYLASNLESGVPARFSGSGSGTDFTLTINPVEANDTANYYCQHSRELPFTFGGGTKVEIKRTESPKAQASSVPTAQPQAEGSLAKATTAPATTRNTGRGGEEKKKEKEKEEQEERETKTPIYIWAPLAGTCGVLLLSLVITLYCKRGRKKLLYIFKQPFMRPVQTTQEEDGCSCRFPEEEEGGCELRVKFSRSADAPAYKQGQNQLYNELNLGRREEYDVLDKRRGRDPEMGGKPRRKNPQEGLYNELQKDKMAEAYSEIGMKGERRRGKGHDGLYQGLSTATKDTYDALHMQALPPR
- binding [4]: binds
